Values of other authors, collected in article PMC11267547, “Advancing drug discovery through assay development: a survey of tool compounds within the human solute carrier superfamily” (Frontiers in Pharmacology, 2024).

Assays:
CYP3A4 = details: cited from earlier work
KCNH2 = details: cited from earlier work

In the case of `Nc1nc2ccc(OC(F)(F)F)cc2s1` [Riluzole], the other_targets_act (CYP3A4) is listed as 5.66, 5.0, 4.6, 4.6, 4.6, 4.6, 4.6 and the other_targets_act (KCNH2) is listed as 5.66, 5.0, 4.6, 4.6, 4.6, 4.6, 4.6.
